Experimental data from PMC9081910.
These are yes or no findings as the source states them, for the method shown. In cells and extracts the contact can be indirect. Some binding calls cover weakened binding; strength is not graded here.

By UniProt entry, the sequences of proteins in these tests, tags left out. Residues count along the entry.
UniProt P05067, residues 672-713: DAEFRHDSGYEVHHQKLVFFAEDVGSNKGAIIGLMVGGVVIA
UniProt Q9VFV9: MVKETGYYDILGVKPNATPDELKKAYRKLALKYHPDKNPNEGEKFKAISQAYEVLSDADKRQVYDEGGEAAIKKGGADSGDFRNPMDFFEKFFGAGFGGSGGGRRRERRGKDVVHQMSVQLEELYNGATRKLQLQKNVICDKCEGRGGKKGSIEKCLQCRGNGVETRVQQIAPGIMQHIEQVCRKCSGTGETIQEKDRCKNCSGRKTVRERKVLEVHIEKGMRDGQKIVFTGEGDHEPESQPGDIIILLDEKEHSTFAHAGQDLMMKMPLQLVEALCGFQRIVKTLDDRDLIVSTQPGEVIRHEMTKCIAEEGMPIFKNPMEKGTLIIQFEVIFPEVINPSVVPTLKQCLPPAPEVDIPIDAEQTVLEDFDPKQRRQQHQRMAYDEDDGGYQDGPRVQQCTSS

Biological target: synthetic Abeta42 peptide (1‐42) (human) (UniProt P05067)
Assay: co-IP; 500 µM synthetic Abeta42 added to pre‐cleared fly head extract with Protein G magnetic beads coupled to antibody 6E10; 4 h, 4°C; Droj2 detected with DnaJA1‐specific antibody; only the target purified

- binding: binds
Substance: Droj2 (Drosophila DnaJ‐like‐2), fly homologue of Ydj1/DnaJA1 (from UniProt Q9VFV9 1-403)
